These are yes or no findings as the source states them, for the method shown. In cells and extracts the contact can be indirect. Some entries that bind do so weakly or less than the wild type.
T1: human NaDC-1 (sodium dicarboxylate cotransporter-1, SLC13A2) (human) (UniProt Q13183)
T1 sequence: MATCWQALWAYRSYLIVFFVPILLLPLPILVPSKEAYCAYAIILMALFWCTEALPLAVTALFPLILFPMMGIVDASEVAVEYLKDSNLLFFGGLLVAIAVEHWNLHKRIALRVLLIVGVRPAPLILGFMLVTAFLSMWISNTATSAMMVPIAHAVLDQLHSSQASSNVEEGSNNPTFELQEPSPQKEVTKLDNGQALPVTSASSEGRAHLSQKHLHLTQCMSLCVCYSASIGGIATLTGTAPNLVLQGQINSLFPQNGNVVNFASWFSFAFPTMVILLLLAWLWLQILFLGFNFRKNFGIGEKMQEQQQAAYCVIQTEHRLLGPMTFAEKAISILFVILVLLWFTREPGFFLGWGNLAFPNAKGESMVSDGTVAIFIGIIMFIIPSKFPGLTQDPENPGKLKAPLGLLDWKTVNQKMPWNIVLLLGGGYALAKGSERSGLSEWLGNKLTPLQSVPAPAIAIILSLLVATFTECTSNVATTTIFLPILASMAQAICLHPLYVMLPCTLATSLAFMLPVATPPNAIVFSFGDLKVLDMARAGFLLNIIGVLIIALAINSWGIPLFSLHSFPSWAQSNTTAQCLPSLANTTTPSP


These binders were tested against T1, human NaDC-1 (sodium dicarboxylate cotransporter-1, SLC13A2) (human) (assay: co-IP; HEK293T cells transfected, lysates after 2 days (PBS, 10 mM Na-pyrophosphate, 50 mM NaF, pH 7.4, 1% Triton X-100); NaDC-1 precipitated with anti-His antibody and Protein G Sepharose at 4°C; blot with anti-SLC26A6; SLC26A6 expression levels adjusted).

Row | Binder | binding
1 | human SLC26A6(WT) (protein, UniProt Q9BXS9-1 1-759) MGLADASGPRDTQALLSATQAMDLRRRDYHMERPLLNQEHLEELGRWGSAPRTHQWRTWLQCSRARAYALLLQHLPVLVWLPRYPVRDWLLGDLLSGLSVAIMQLPQGLAYALLAGLPPVFGLYSSFYPVFIYFLFGTSRHISVGTFAVMSVMVGSVTESLAPQALNDSMINETARDAARVQVASTLSVLVGLFQVGLGLIHFGFVVTYLSEPLVRGYTTAAAVQVFVSQLKYVFGLHLSSHSGPLSLIYTVLEVCWKLPQSKVGTVVTAAVAGVVLVVVKLLNDKLQQQLPMPIPGELLTLIGATGISYGMGLKHRFEVDVVGNIPAGLVPPVAPNTQLFSKLVGSAFTIAVVGFAIAISLGKIFALRHGYRVDSNQELVALGLSNLIGGIFQCFPVSCSMSRSLVQESTGGNSQVAGAISSLFILLIIVKLGELFHDLPKAVLAAIIIVNLKGMLRQLSDMRSLWKANRADLLIWLVTFTATILLNLDLGLVVAVIFSLLLVVVRTQMPHYSVLGQVPDTDIYRDVAEYSEAKEVRGVKVFRSSATVYFANAEFYSDALKQRCGVDVDFLISQKKKLLKKQEQLKLKQLQKEEKLRKQAASPKGASVSINVNTSLEDMRSNNVEDCKMMQVSSGDKMEDATANGQEDSKAPDGSTLKALGLPQPDFHSLILDLGALSFVDTVCLKSLKNIFHDFREIEVEVYMAACHSPVVSQLEAGHFFDASITKKHLFASVHDAVTFALQHPRPVPDSPVSVTRL | binds
2 | human SLC26A6(D674N) (protein, UniProt Q9BXS9-1 1-759) MGLADASGPRDTQALLSATQAMDLRRRDYHMERPLLNQEHLEELGRWGSAPRTHQWRTWLQCSRARAYALLLQHLPVLVWLPRYPVRDWLLGDLLSGLSVAIMQLPQGLAYALLAGLPPVFGLYSSFYPVFIYFLFGTSRHISVGTFAVMSVMVGSVTESLAPQALNDSMINETARDAARVQVASTLSVLVGLFQVGLGLIHFGFVVTYLSEPLVRGYTTAAAVQVFVSQLKYVFGLHLSSHSGPLSLIYTVLEVCWKLPQSKVGTVVTAAVAGVVLVVVKLLNDKLQQQLPMPIPGELLTLIGATGISYGMGLKHRFEVDVVGNIPAGLVPPVAPNTQLFSKLVGSAFTIAVVGFAIAISLGKIFALRHGYRVDSNQELVALGLSNLIGGIFQCFPVSCSMSRSLVQESTGGNSQVAGAISSLFILLIIVKLGELFHDLPKAVLAAIIIVNLKGMLRQLSDMRSLWKANRADLLIWLVTFTATILLNLDLGLVVAVIFSLLLVVVRTQMPHYSVLGQVPDTDIYRDVAEYSEAKEVRGVKVFRSSATVYFANAEFYSDALKQRCGVDVDFLISQKKKLLKKQEQLKLKQLQKEEKLRKQAASPKGASVSINVNTSLEDMRSNNVEDCKMMQVSSGDKMEDATANGQEDSKAPDGSTLKALGLPQPDFHSLILNLGALSFVDTVCLKSLKNIFHDFREIEVEVYMAACHSPVVSQLEAGHFFDASITKKHLFASVHDAVTFALQHPRPVPDSPVSVTRL | binds
3 | human SLC26A6(R621G) (protein, UniProt Q9BXS9-1 1-759) MGLADASGPRDTQALLSATQAMDLRRRDYHMERPLLNQEHLEELGRWGSAPRTHQWRTWLQCSRARAYALLLQHLPVLVWLPRYPVRDWLLGDLLSGLSVAIMQLPQGLAYALLAGLPPVFGLYSSFYPVFIYFLFGTSRHISVGTFAVMSVMVGSVTESLAPQALNDSMINETARDAARVQVASTLSVLVGLFQVGLGLIHFGFVVTYLSEPLVRGYTTAAAVQVFVSQLKYVFGLHLSSHSGPLSLIYTVLEVCWKLPQSKVGTVVTAAVAGVVLVVVKLLNDKLQQQLPMPIPGELLTLIGATGISYGMGLKHRFEVDVVGNIPAGLVPPVAPNTQLFSKLVGSAFTIAVVGFAIAISLGKIFALRHGYRVDSNQELVALGLSNLIGGIFQCFPVSCSMSRSLVQESTGGNSQVAGAISSLFILLIIVKLGELFHDLPKAVLAAIIIVNLKGMLRQLSDMRSLWKANRADLLIWLVTFTATILLNLDLGLVVAVIFSLLLVVVRTQMPHYSVLGQVPDTDIYRDVAEYSEAKEVRGVKVFRSSATVYFANAEFYSDALKQRCGVDVDFLISQKKKLLKKQEQLKLKQLQKEEKLRKQAASPKGASVSINVNTSLEDMGSNNVEDCKMMQVSSGDKMEDATANGQEDSKAPDGSTLKALGLPQPDFHSLILDLGALSFVDTVCLKSLKNIFHDFREIEVEVYMAACHSPVVSQLEAGHFFDASITKKHLFASVHDAVTFALQHPRPVPDSPVSVTRL | binds

Source: article PMC7154107
